Experimental data: the supplement of paper PMC8728848
Some of the results follow.

Experiments:
Experiment in all cases: glycan array binding signal (z-score within array); higher = stronger binding
Conditions in all cases: glycan notation: IUPAC condensed, linker removed
[1] = target: Fuc(a1-2)[GalNAc(b1-3)]Gal
Procedure, shortened: (§1)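 From the Consortium for Functional Glycomics database, 3228 arrays were curated, keeping only those whose protein sequence was available. Binding is given as a within-array Z-score averaged across arrays sharing a protein sequence and across linkers. Negative Z-scores can be read as non-binding.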

Fuc(a1-3)GlcNAc = target: Fuc(a1-3)GlcNAc
Procedure, shortened: as §1

[2] = target: Fuc(a1-3)[Gal(b1-4)]Glc6S
Procedure, shortened: as §1

[3] = target: Fuc(a1-3)[Gal(b1-4)]GlcNAc
Procedure, shortened: as §1

[4] = target: Fuc(a1-3)[Gal(b1-4)]GlcNAc(b1-2)Man
Procedure, shortened: as §1

[5] = target: Fuc(a1-3)[Gal(b1-4)]GlcNAc(b1-2)Man(a1-3)[Fuc(a1-3)[Gal(b1-4)]GlcNAc(b1-2)Man(a1-6)]Man(b1-4)GlcNAc(b1-4)GlcNAc
Procedure, shortened: as §1

[6] = target: Fuc(a1-3)[Gal(b1-4)]GlcNAc(b1-2)Man(a1-3)[Fuc(a1-3)[Gal(b1-4)]GlcNAc(b1-2)Man(a1-6)]Man(b1-4)GlcNAc(b1-4)[Fuc(a1-6)]GlcNAc
Procedure, shortened: as §1

[7] = target: Fuc(a1-3)[Gal(b1-4)]GlcNAc(b1-3)Gal(b1-3)[Fuc(a1-4)]GlcNAc
Procedure, shortened: as §1

[8] = target: Fuc(a1-3)[Gal(b1-4)]GlcNAc(b1-3)Gal(b1-4)[Fuc(a1-3)]GlcNAc
Procedure, shortened: as §1

[9] = target: Fuc(a1-3)[Gal(b1-4)]GlcNAc(b1-3)Gal(b1-4)[Fuc(a1-3)]GlcNAc(b1-3)Gal(b1-4)[Fuc(a1-3)]GlcNAc
Procedure, shortened: as §1

[10] = target: Fuc(a1-3)[Gal(b1-4)]GlcNAc(b1-3)GalNAc
Procedure, shortened: as §1

[11] = target: Fuc(a1-3)[Gal(b1-4)]GlcNAc(b1-6)GalNAc
Procedure, shortened: as §1

[12] = target: Fuc(a1-3)[Gal(b1-4)]GlcNAc(b1-6)[Gal(b1-3)GlcNAc(b1-3)]Gal(b1-4)Glc
Procedure, shortened: as §1

[13] = target: Fuc(a1-3)[Gal(b1-4)]GlcNAc6S
Procedure, shortened: as §1

[14] = target: Fuc(a1-3)[Gal3S(b1-4)]Glc
Procedure, shortened: as §1

[15] = target: Fuc(a1-3)[Gal3S(b1-4)]GlcNAc
Procedure, shortened: as §1

[16] = target: Fuc(a1-3)[Gal3S(b1-4)]GlcNAc6S
Procedure, shortened: as §1

[17] = target: Fuc(a1-3)[GalNAc(b1-4)]GlcNAc
Procedure, shortened: as §1

[18] = target: Fuc(a1-3)[GalNAc(b1-4)]GlcNAc6S
Procedure, shortened: as §1

Fuc(a1-4)GlcNAc = target: Fuc(a1-4)GlcNAc
Procedure, shortened: as §1

Fuc(b1-3)GlcNAc = target: Fuc(b1-3)GlcNAc
Procedure, shortened: as §1

Gal(a1-2)Gal = target: Gal(a1-2)Gal
Procedure, shortened: as §1

Gal(a1-3)Gal = target: Gal(a1-3)Gal
Procedure, shortened: as §1

Gal(a1-3)Gal(b1-3)GlcNAc = target: Gal(a1-3)Gal(b1-3)GlcNAc
Procedure, shortened: as §1

[19] = target: Gal(a1-3)Gal(b1-3)GlcNAc(b1-2)Man
Procedure, shortened: as §1

[20] = target: Gal(a1-3)Gal(b1-3)GlcNAc(b1-2)Man(a1-3)[Gal(a1-3)Gal(b1-3)GlcNAc(b1-2)Man(a1-6)]Man(b1-4)GlcNAc(b1-4)GlcNAc
Procedure, shortened: as §1

[21] = target: Gal(a1-3)Gal(b1-3)GlcNAc(b1-3)GalNAc
Procedure, shortened: as §1

[22] = target: Gal(a1-3)Gal(b1-3)GlcNAc(b1-6)GalNAc
Procedure, shortened: as §1

[23] = target: Gal(a1-3)Gal(b1-3)[Fuc(a1-4)]GlcNAc(b1-2)Man(a1-3)[Gal(a1-3)Gal(b1-3)[Fuc(a1-4)]GlcNAc(b1-2)Man(a1-6)]Man(b1-4)GlcNAc(b1-4)GlcNAc
Procedure, shortened: as §1

Gal(a1-3)Gal(b1-4)Glc = target: Gal(a1-3)Gal(b1-4)Glc
Procedure, shortened: as §1

Gal(a1-3)Gal(b1-4)GlcNAc = target: Gal(a1-3)Gal(b1-4)GlcNAc
Procedure, shortened: as §1

[24] = target: Gal(a1-3)Gal(b1-4)GlcNAc(b1-2)Man
Procedure, shortened: as §1

[25] = target: Gal(a1-3)Gal(b1-4)GlcNAc(b1-2)Man(a1-3)[Gal(a1-3)Gal(b1-4)GlcNAc(b1-2)Man(a1-6)]Man(b1-4)GlcNAc(b1-4)GlcNAc
Procedure, shortened: as §1

[26] = target: Gal(a1-3)Gal(b1-4)GlcNAc(b1-3)GalNAc
Procedure, shortened: as §1

[27] = target: Gal(a1-3)Gal(b1-4)GlcNAc(b1-6)GalNAc
Procedure, shortened: as §1

[28] = target: Gal(a1-3)Gal(b1-4)[Fuc(a1-3)]GlcNAc
Procedure, shortened: as §1

[29] = target: Gal(a1-3)Gal(b1-4)[Fuc(a1-3)]GlcNAc(b1-2)Man(a1-3)[Gal(a1-3)Gal(b1-4)[Fuc(a1-3)]GlcNAc(b1-2)Man(a1-6)]Man(b1-4)GlcNAc(b1-4)GlcNAc
Procedure, shortened: as §1

Gal(a1-3)GalNAc = target: Gal(a1-3)GalNAc
Procedure, shortened: as §1

[30] = target: Gal(a1-3)[Gal(a1-4)]Gal(b1-4)GlcNAc
Procedure, shortened: as §1

[31] = target: Gal(a1-4)Gal(b1-3)GlcNAc(b1-2)Man(a1-3)[Gal(a1-4)Gal(b1-3)GlcNAc(b1-2)Man(a1-6)]Man(b1-4)GlcNAc(b1-4)GlcNAc
Procedure, shortened: as §1

Gal(a1-4)Gal(b1-4)Glc = target: Gal(a1-4)Gal(b1-4)Glc
Procedure, shortened: as §1

Gal(a1-4)Gal(b1-4)GlcNAc = target: Gal(a1-4)Gal(b1-4)GlcNAc
Procedure, shortened: as §1

[32] = target: Gal(a1-4)Gal(b1-4)GlcNAc(b1-2)Man(a1-3)[Gal(a1-4)Gal(b1-4)GlcNAc(b1-2)Man(a1-6)]Man(b1-4)GlcNAc(b1-4)GlcNAc
Procedure, shortened: as §1

[33] = target: Gal(a1-4)Gal(b1-4)GlcNAc(b1-3)Gal(b1-4)Glc
Procedure, shortened: as §1

Gal(a1-4)GlcNAc = target: Gal(a1-4)GlcNAc
Procedure, shortened: as §1

B1: BIp1-His (Cryptococcus neoformans) (protein)
chain: MFTKIFVALFAATAVLSAPVESAEKRITHTGRATFYSPSVGIGACGWQNTDEELVVALNAPQYALNADHNCGQSVRITNEQNGNQEIAKVVDLCPGCNDGDLDMSPALFGALNNNDFDQGVFPISWNFLPRDDTSSSN
glycan array binding signal (z-score) [1]: -0.374
glycan array binding signal (z-score) (Fuc(a1-3)GlcNAc): -0.478
glycan array binding signal (z-score) [2]: 0.548
glycan array binding signal (z-score) [3]: 0.066
glycan array binding signal (z-score) [4]: 0.629
glycan array binding signal (z-score) [5]: -0.788
glycan array binding signal (z-score) [6]: 1.39
glycan array binding signal (z-score) [7]: -0.676
glycan array binding signal (z-score) [8]: 0.071
glycan array binding signal (z-score) [9]: -1.22
glycan array binding signal (z-score) [10]: -0.46
glycan array binding signal (z-score) [11]: -0.576
glycan array binding signal (z-score) [12]: -0.013
glycan array binding signal (z-score) [13]: 0.471
glycan array binding signal (z-score) [14]: -0.402
glycan array binding signal (z-score) [15]: -0.621
glycan array binding signal (z-score) [16]: -0.121
glycan array binding signal (z-score) [17]: 0.029
glycan array binding signal (z-score) [18]: -0.56
glycan array binding signal (z-score) (Fuc(a1-4)GlcNAc): -0.655
glycan array binding signal (z-score) (Fuc(b1-3)GlcNAc): -0.55
glycan array binding signal (z-score) (Gal(a1-2)Gal): -1.13
glycan array binding signal (z-score) (Gal(a1-3)Gal): 0.312
glycan array binding signal (z-score) (Gal(a1-3)Gal(b1-3)GlcNAc): -0.478
glycan array binding signal (z-score) [19]: -0.74
glycan array binding signal (z-score) [20]: 0.961
glycan array binding signal (z-score) [21]: -0.137
glycan array binding signal (z-score) [22]: -0.47
glycan array binding signal (z-score) [23]: 1.5
glycan array binding signal (z-score) (Gal(a1-3)Gal(b1-4)Glc): -0.171
glycan array binding signal (z-score) (Gal(a1-3)Gal(b1-4)GlcNAc): 0.102
glycan array binding signal (z-score) [24]: -0.651
glycan array binding signal (z-score) [25]: -0.192
glycan array binding signal (z-score) [26]: 0.409
glycan array binding signal (z-score) [27]: -0.681
glycan array binding signal (z-score) [28]: -0.303
glycan array binding signal (z-score) [29]: -0.335
glycan array binding signal (z-score) (Gal(a1-3)GalNAc): -0.689
glycan array binding signal (z-score) [30]: 0.032
glycan array binding signal (z-score) [31]: 1.64
glycan array binding signal (z-score) (Gal(a1-4)Gal(b1-4)Glc): 0.094
glycan array binding signal (z-score) (Gal(a1-4)Gal(b1-4)GlcNAc): 0.55
glycan array binding signal (z-score) [32]: 1.68
glycan array binding signal (z-score) [33]: -0.471
glycan array binding signal (z-score) (Gal(a1-4)GlcNAc): -1.9
